For this assay, the target named is T1, A0A0A0MRK6|Q13505 and related entries (UniProt Q13505).
T1 sequence (whole entry): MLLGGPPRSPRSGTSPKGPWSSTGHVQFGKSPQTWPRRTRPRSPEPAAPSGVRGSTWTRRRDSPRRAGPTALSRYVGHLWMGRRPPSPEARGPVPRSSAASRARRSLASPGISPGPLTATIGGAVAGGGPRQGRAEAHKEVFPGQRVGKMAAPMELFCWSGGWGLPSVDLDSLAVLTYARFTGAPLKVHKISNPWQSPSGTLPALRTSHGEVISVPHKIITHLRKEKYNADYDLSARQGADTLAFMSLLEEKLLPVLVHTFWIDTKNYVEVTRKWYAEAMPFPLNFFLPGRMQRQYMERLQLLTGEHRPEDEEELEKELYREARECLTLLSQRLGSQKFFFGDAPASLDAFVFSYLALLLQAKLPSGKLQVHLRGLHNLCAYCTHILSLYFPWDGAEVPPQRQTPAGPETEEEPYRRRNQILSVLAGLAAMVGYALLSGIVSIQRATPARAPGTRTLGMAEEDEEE
In words: NP40-soluble protein abundance relative to vehicle (solubility fold change) (ratio); higher = more soluble protein in presence of GTP. Here is the method:
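Solubility proteome profiling in Jurkat crude lysate. Lysate was treated with Mg-GTP (0.1-10 mM) for 10 min at room temperature and 3 min at 37 °C, then solubilised with 0.8% NP40 and benzonase, followed by ultracentrifugation. Proteins were quantified by TMT10 LC-MS/MS; the value is the NP40-soluble abundance relative to the NP40-processed vehicle, from 3 independent experiments.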

± gives the standard deviation of the averaged measurements. Some of the results follow.

Regarding `Nc1nc2c(ncn2[C@@H]2O[C@H](COP(=O)(O)OP(=O)(O)OP(=O)(O)O)[C@@H](O)[C@H]2O)c(=O)[nH]1` [guanosine triphosphate], the NP40-soluble protein abundance (concentration: 0.1mM) came to 1 ± 0.022; the NP40-soluble protein abundance (concentration: 0.5mM) is 0.963 ± 0.017; the NP40-soluble protein abundance (concentration: 1mM) came to 0.936 ± 0.015; the NP40-soluble protein abundance (concentration: 2mM) was found to be 0.918 ± 0.06; the NP40-soluble protein abundance (concentration: 4mM) was 0.919 ± 0.067; the NP40-soluble protein abundance (concentration: 6mM) worked out at 0.879 ± 0.065. In addition, the NP40-soluble protein abundance is, setting by setting: (concentration: 8mM) 0.847 ± 0.074; (concentration: 10mM) 0.858 ± 0.084.

These data come from the supplement of paper PMC6411743.
